Reference: patent EP4772530A1 (Mainline Biosciences (Shanghai) Co., Ltd., priority 2023, dated 2025)
For part of these data: The same purity stands for every peptide and may come from a single statement. For part of these data: Some peptides are written in HELM: one residue between dots, names in brackets for other building blocks, links after the first $. *1 amine or outer side, *2 acyl side, *3 side chain or, on linkers, in order; H or OH if unused. Where a SMILES comes first, the peptide text is derived from it. Bridges are numbered along the chain shown (N, C = ends). Roman numbers before positions name the chains, in order. [ ]: non-standard residue; d: D form. The star is where a group is joined. X1 = O=C(O)[C@H]1O[C@@H](Oc2ccc(COC(=O)[*:2])cc2N[*:1])[C@H](O)[C@@H](O)[C@@H]1O; Dolaproine = CO[C@@H]([C@@H]1CCCN1)[C@@H](C)C(=O)O; X3 = O=C(CCCCCN1C(=O)CC([*:1])C1=O)NCCC(=O)[*:2]; Dil = CC[C@H](C)[C@H](NC)[C@@H](CC(=O)O)OC; X2 = C[C@@H](N*)[C@@H](O)c1ccccc1; NMeV = CN[C@H](C(=O)O)C(C)C; AEEA = NCCOCCOCC(=O)O

tested on: not listed separately; experiment: general procedure: Fmoc solid-phase peptide synthesis; Rink Amide-AM Resin, 0.2 mmol/g; DIC and HOBt; settings: conjugation step, HPLC and MS

**Q.** Which “final purity (method not given)” value does the source give for “PEPTIDE1{[PEG6].C.[PEG6].R.R.L.F.C.Y.[dW].K.T.C.T.W.R.D.[am]}|CHEM1{[MC-Gly-Gly-Phe-Gly-NH-CH2-Dxd]}$PEPTIDE1,PEPTIDE1,8:R3-13:R3|PEPTIDE1,CHEM1,2:R3-1:R1$$$V2.0” here?
**A.** greater than 90%

**Q.** For “PEPTIDE1{[PEG6].C.[PEG6].R.R.L.F.C.Y.[dW].K.T.C.T.W.R.D.[am]}|CHEM1{[MC-Val-Cit-PABC-MMAE]}$PEPTIDE1,PEPTIDE1,8:R3-13:R3|PEPTIDE1,CHEM1,2:R3-1:R1$$$V2.0”, which “final purity (method not given)” value is on record?
**A.** greater than 90%

**Q.** Which “final purity (method not given)” value does the source give for “PEPTIDE1{[ac].C.[AEEA].[AEEA].[AEEA].R.R.L.F.C.F.[dW].K.T.C.T.W.R.D.[am]}|CHEM1{[MC-Val-Cit-PABC-MMAE]}$PEPTIDE1,PEPTIDE1,10:R3-15:R3|PEPTIDE1,CHEM1,2:R3-1:R1$$$V2.0” here?
**A.** greater than 90%

**Q.** For “PEPTIDE1{[ac].C.[PEG6].K.K.[PEG6].R.R.L.F.C.Y.[dW].K.T.C.T.W.R.D.[am]}|PEPTIDE2{[ac].C.[PEG6]}|PEPTIDE3{[ac].C.[PEG6]}|CHEM1{[MC-Gly-Gly-Phe-Gly-NH-CH2-Dxd]}|CHEM2{[MC-Gly-Gly-Phe-Gly-NH-CH2-Dxd]}|CHEM3{[MC-Gly-Gly-Phe-Gly-NH-CH2-Dxd]}$PEPTIDE1,PEPTIDE1,11:R3-16:R3|PEPTIDE1,PEPTIDE2,4:R3-3:R2|PEPTIDE1,PEPTIDE3,5:R3-3:R2|PEPTIDE1,CHEM1,2:R3-1:R1|PEPTIDE2,CHEM2,2:R3-1:R1|PEPTIDE3,CHEM3,2:R3-1:R1$$$V2.0”, which “final purity (method not given)” value is on record?
**A.** greater than 90%

**Q.** For “PEPTIDE1{[ac].C.[PEG6].R.R.L.F.C.Y.[dW].K.T.C.T.W.R.D.[am]}|CHEM1{[MC-Gly-Gly-Phe-Gly-NH-CH2-Dxd]}$PEPTIDE1,PEPTIDE1,8:R3-13:R3|PEPTIDE1,CHEM1,2:R3-1:R1$$$V2.0”, which “final purity (method not given)” value is on record?
**A.** greater than 90%

**Q.** With “PEPTIDE1{[ac].C.[PEG6].R.R.L.F.C.Y.[dW].K.T.C.T.W.R.D.[am]}|CHEM1{[MC-Val-Cit-PABC-MMAE]}$PEPTIDE1,PEPTIDE1,8:R3-13:R3|PEPTIDE1,CHEM1,2:R3-1:R1$$$V2.0” as the molecule, how does the “final purity (method not given)” value read?
**A.** greater than 90%

same assay, conditions: conjugation step, HPLC and MS, one disulfide bridge

**Q.** For “Ac-Cys(MC-Val-Cit-PABC-MMAE)-AEEA-Arg-Arg-Leu-Phe-[Cys-Tyr-D-Trp-Lys-Thr-Cys]-Thr-Trp-Arg-Asp-NH2”, which “final purity (method not given)” value is on record?
**A.** greater than 90%

**Q.** Which “final purity (method not given)” value does the source give for “Ac-Cys(MC-betaglucuronide-MMAE)-AEEA-AEEA-AEEA-Arg-Arg-Leu-Phe-[Cys-Tyr-D-Trp-Lys-Thr-Cys]-Thr-Trp-Arg-Asp-NH2” here?
**A.** greater than 90%

**Q.** For “Cys(MC-Val-Cit-PABC-MMAE)-AEEA-Arg-Arg-Leu-Phe-[Cys-Tyr-D-Trp-Lys-Thr-Cys]-Thr-Trp-Arg-Asp-NH2”, which “final purity (method not given)” value is on record?
**A.** greater than 90%

**Q.** With “Cys(MC-Val-Cit-PABC-MMAE)-Glu-Glu-Glu-AEEA-Arg-Arg-Leu-Phe-[Cys-Tyr-D-Trp-Lys-Thr-Cys]-Thr-Trp-Arg-Asp-NH2” as the molecule, how does the “final purity (method not given)” value read?
**A.** greater than 90%

tested on: NCI-H69; experiment: Cell killing in NCI-H69 by CGT (CellTiter-Glo); format: cell-based; settings: NCI-H69, 96 h; 4-parameter fit
Method: Approximately 5 µL of the PDC was added to the corresponding wells of the plate, and compared with DMSO (control, without the PDC of the present application), PTX, MMAE, and Dxd wells. The final concentration of DMSO in each well was 0.2%; • (5) The cells were incubated in a 5% CO2 incubator at 37°C for 96 h; • (6) The cell culture plate was equilibrated to room temperature, and 50 µL of CellTiter-Glo® Reagent was added to each well; • (7) The plate was placed on a shaker for 2 min to ensure complete cell lysis; • (8) After mixing, the plate was placed at room temperature to react for 10 min. The fluorescence value (in RLU) was read when the signal became stable. • c) Data analysis • (1) The inhibition (Inh %) relative to the DMSO control was calculated as follows: Inhibition (Inh%)= 100 -(RLU of compound - RLU of DMSO control)/ (RLU of DMSO control - RLU of blank)*100% • (2) The data were analyzed using Graphpad 5.0 software. A 4-parameter equation was fitted to generate a concentration-response curve to obtain the IC50. Table 3: Test Results of Cell Killing in NCI-H69

**Q.** For CC[C@@]1(O)C(=O)OCc2c1cc1n(c2=O)Cc2c-1nc1cc(F)c(C)c3c1c2[C@@H](NC(=O)CO)CC3 [Dxd], which “Hillslope (Curve Gradient/Slope)” value is on record?
**A.** 0.50

**Q.** With CC[C@H](C)[C@@H]([C@@H](CC(=O)N1CCC[C@H]1[C@H](OC)[C@@H](C)C(=O)N[C@H](C)[C@@H](O)c1ccccc1)OC)N(C)C(=O)[C@@H](NC(=O)[C@H](C(C)C)N(C)C(=O)OCc1ccc(NC(=O)[C@H](CCCNC(N)=O)NC(=O)[C@@H](NC(=O)CCCCCN2C(=O)CC(SC[C@H](NC(C)=O)C(=O)NCCOCCOCC(=O)N[C@@H](CCCNC(=N)N)C(=O)N[C@@H](CCCNC(=N)N)C(=O)N[C@@H](CC(C)C)C(=O)N[C@@H](Cc3ccccc3)C(=O)N[C@H]3CSSC[C@@H](C(=O)N[C@H](C(=O)N[C@@H](Cc4c[nH]c5ccccc45)C(=O)N[C@@H](CCCNC(=N)N)C(=O)N[C@@H](CC(=O)O)C(N)=O)[C@@H](C)O)NC(=O)[C@H]([C@@H](C)O)NC(=O)[C@H](CCCCN)NC(=O)[C@@H](Cc4c[nH]c5ccccc45)NC(=O)[C@H](Cc4ccc(O)cc4)NC3=O)C2=O)C(C)C)cc1)C(C)C (stereo partly drawn) [Example 1, Cys(MC-Val-Cit-PABC-MMAE)-AEEA-Arg-Arg-Leu-Phe-[Cys-Tyr-D-Trp-Lys-Thr-Cys]-Thr-Trp-Arg-Asp-NH2] as the molecule, how does the “Hillslope (Curve Gradient/Slope)” value read?
**A.** 1.53

**Q.** For CC[C@H](C)[C@@H]([C@@H](CC(=O)N1CCC[C@H]1[C@H](OC)[C@@H](C)C(=O)N[C@H](C)[C@@H](O)c1ccccc1)OC)N(C)C(=O)[C@@H](NC(=O)[C@H](C(C)C)N(C)C(=O)OCc1ccc(O[C@@H]2O[C@H](C(=O)O)[C@@H](O)[C@H](O)[C@H]2O)c(NC(=O)CCNC(=O)CCCCCN2C(=O)CC(SC[C@H](NC(C)=O)C(=O)NCCOCCOCC(=O)NCCOCCOCC(=O)NCCOCCOCC(=O)N[C@@H](CCCNC(=N)N)C(=O)N[C@@H](CCCNC(=N)N)C(=O)N[C@@H](CC(C)C)C(=O)N[C@@H](Cc3ccccc3)C(=O)N[C@H]3CSSC[C@@H](C(=O)N[C@H](C(=O)N[C@@H](Cc4c[nH]c5ccccc45)C(=O)N[C@@H](CCCNC(=N)N)C(=O)N[C@@H](CC(=O)O)C(N)=O)[C@@H](C)O)NC(=O)[C@H]([C@@H](C)O)NC(=O)[C@H](CCCCN)NC(=O)[C@@H](Cc4c[nH]c5ccccc45)NC(=O)[C@H](Cc4ccc(O)cc4)NC3=O)C2=O)c1)C(C)C (stereo partly drawn) [Example 4, Ac-Cys(MC-betaglucuronide-MMAE)-AEEA-AEEA-AEEA-Arg-Arg-Leu-Phe-[Cys-Tyr-D-Trp-Lys-Thr-Cys]-Thr-Trp-Arg-Asp-NH2] (I: Ac-C[AEEA][AEEA][AEEA]RRLFCY[dW]KTCTWRD-NH2 / II: [X1][NMeV]V[Dil][Dolaproine]-X2; linker I:1-II:N via X3; disulfide I:9-I:14), which “Hillslope (Curve Gradient/Slope)” value is on record?
**A.** 1.15

**Q.** With CCC(C)C(C(CC(=O)N1CCCC1C(OC)C(C)C(=O)NC(C)C(O)c1ccccc1)OC)N(C)C(=O)C(NC(=O)C(NC)C(C)C)C(C)C (stereo not drawn) [MMAE] as the molecule, how does the “Hillslope (Curve Gradient/Slope)” value read?
**A.** 0.97

**Q.** With CC(=O)O[C@H]1C(=O)[C@@]2(C)[C@H]([C@H](OC(=O)c3ccccc3)[C@]3(O)C[C@H](OC(=O)[C@H](O)[C@@H](NC(=O)c4ccccc4)c4ccccc4)C(C)=C1C3(C)C)[C@]1(OC(C)=O)CO[C@@H]1C[C@@H]2O [PTX] as the molecule, how does the “Hillslope (Curve Gradient/Slope)” value read?
**A.** 2.18
